This is one part of the list.
Columns and labels:
Assay in all cases: log2 fold change, soluble protein after heating vs DMSO (PISA); higher = thermal stabilisation; K562 cells, 10 uM, 30 min; active = over 0.2 and 3.5 SD of the protein, either way, in both replicates (recomputed)
erlotinib = compound: C#Cc1cccc(Nc2ncnc3cc(OCCOC)c(OCCOC)cc23)c1 [erlotinib]
Outline: (§1)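 K562 cells at 2×10^6 cells/mL were treated with 10 μM compound for 30 min. Aliquots were heated for 3 min across 48°C-58°C, pooled, and extracted in PBS with 0.5% NP-40 at 4°C; soluble protein was the supernatant after 21,000xg for 90 min. Soluble protein was quantified by TMTpro 16plex LC-MS/MS with channel sums equalised, and reported as log2 fold change in thermal stability against DMSO controls, with values from duplicates.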

By UniProt entry, the sequences of proteins in these tests, tags left out. Where a name states a change or a piece, a line headed by the entry shows the natural chain unless it says otherwise.
UniProt Q92902: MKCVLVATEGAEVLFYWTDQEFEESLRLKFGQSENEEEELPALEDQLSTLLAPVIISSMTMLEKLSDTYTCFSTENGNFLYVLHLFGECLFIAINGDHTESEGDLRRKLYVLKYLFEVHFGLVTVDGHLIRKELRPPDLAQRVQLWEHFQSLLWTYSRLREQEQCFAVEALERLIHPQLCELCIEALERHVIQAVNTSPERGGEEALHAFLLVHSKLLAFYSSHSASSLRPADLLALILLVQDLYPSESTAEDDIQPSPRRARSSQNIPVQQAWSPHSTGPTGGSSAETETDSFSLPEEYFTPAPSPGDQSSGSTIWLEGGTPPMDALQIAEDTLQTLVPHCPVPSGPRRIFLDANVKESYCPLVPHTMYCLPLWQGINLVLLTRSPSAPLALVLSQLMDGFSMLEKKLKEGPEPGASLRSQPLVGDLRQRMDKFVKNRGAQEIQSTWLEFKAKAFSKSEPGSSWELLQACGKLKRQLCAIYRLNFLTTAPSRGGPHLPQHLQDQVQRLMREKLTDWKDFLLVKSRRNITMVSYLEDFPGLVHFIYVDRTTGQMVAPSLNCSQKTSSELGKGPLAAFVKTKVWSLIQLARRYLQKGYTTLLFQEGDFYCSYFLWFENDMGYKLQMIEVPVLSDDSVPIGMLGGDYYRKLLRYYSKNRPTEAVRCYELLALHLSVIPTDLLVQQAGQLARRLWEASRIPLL
UniProt O14979: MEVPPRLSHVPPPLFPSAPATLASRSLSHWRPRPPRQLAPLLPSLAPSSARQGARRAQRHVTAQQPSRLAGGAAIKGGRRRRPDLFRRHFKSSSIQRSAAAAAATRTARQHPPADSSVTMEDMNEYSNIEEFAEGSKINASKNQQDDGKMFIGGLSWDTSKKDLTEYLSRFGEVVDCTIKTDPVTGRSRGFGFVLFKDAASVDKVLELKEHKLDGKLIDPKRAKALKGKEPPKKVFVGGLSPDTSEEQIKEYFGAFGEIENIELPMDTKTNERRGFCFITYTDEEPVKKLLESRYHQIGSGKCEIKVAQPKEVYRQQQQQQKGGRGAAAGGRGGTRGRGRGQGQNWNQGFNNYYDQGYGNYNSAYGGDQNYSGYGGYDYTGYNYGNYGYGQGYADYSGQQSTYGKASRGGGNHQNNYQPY
UniProt Q7Z6Z7, whole entry, looked up: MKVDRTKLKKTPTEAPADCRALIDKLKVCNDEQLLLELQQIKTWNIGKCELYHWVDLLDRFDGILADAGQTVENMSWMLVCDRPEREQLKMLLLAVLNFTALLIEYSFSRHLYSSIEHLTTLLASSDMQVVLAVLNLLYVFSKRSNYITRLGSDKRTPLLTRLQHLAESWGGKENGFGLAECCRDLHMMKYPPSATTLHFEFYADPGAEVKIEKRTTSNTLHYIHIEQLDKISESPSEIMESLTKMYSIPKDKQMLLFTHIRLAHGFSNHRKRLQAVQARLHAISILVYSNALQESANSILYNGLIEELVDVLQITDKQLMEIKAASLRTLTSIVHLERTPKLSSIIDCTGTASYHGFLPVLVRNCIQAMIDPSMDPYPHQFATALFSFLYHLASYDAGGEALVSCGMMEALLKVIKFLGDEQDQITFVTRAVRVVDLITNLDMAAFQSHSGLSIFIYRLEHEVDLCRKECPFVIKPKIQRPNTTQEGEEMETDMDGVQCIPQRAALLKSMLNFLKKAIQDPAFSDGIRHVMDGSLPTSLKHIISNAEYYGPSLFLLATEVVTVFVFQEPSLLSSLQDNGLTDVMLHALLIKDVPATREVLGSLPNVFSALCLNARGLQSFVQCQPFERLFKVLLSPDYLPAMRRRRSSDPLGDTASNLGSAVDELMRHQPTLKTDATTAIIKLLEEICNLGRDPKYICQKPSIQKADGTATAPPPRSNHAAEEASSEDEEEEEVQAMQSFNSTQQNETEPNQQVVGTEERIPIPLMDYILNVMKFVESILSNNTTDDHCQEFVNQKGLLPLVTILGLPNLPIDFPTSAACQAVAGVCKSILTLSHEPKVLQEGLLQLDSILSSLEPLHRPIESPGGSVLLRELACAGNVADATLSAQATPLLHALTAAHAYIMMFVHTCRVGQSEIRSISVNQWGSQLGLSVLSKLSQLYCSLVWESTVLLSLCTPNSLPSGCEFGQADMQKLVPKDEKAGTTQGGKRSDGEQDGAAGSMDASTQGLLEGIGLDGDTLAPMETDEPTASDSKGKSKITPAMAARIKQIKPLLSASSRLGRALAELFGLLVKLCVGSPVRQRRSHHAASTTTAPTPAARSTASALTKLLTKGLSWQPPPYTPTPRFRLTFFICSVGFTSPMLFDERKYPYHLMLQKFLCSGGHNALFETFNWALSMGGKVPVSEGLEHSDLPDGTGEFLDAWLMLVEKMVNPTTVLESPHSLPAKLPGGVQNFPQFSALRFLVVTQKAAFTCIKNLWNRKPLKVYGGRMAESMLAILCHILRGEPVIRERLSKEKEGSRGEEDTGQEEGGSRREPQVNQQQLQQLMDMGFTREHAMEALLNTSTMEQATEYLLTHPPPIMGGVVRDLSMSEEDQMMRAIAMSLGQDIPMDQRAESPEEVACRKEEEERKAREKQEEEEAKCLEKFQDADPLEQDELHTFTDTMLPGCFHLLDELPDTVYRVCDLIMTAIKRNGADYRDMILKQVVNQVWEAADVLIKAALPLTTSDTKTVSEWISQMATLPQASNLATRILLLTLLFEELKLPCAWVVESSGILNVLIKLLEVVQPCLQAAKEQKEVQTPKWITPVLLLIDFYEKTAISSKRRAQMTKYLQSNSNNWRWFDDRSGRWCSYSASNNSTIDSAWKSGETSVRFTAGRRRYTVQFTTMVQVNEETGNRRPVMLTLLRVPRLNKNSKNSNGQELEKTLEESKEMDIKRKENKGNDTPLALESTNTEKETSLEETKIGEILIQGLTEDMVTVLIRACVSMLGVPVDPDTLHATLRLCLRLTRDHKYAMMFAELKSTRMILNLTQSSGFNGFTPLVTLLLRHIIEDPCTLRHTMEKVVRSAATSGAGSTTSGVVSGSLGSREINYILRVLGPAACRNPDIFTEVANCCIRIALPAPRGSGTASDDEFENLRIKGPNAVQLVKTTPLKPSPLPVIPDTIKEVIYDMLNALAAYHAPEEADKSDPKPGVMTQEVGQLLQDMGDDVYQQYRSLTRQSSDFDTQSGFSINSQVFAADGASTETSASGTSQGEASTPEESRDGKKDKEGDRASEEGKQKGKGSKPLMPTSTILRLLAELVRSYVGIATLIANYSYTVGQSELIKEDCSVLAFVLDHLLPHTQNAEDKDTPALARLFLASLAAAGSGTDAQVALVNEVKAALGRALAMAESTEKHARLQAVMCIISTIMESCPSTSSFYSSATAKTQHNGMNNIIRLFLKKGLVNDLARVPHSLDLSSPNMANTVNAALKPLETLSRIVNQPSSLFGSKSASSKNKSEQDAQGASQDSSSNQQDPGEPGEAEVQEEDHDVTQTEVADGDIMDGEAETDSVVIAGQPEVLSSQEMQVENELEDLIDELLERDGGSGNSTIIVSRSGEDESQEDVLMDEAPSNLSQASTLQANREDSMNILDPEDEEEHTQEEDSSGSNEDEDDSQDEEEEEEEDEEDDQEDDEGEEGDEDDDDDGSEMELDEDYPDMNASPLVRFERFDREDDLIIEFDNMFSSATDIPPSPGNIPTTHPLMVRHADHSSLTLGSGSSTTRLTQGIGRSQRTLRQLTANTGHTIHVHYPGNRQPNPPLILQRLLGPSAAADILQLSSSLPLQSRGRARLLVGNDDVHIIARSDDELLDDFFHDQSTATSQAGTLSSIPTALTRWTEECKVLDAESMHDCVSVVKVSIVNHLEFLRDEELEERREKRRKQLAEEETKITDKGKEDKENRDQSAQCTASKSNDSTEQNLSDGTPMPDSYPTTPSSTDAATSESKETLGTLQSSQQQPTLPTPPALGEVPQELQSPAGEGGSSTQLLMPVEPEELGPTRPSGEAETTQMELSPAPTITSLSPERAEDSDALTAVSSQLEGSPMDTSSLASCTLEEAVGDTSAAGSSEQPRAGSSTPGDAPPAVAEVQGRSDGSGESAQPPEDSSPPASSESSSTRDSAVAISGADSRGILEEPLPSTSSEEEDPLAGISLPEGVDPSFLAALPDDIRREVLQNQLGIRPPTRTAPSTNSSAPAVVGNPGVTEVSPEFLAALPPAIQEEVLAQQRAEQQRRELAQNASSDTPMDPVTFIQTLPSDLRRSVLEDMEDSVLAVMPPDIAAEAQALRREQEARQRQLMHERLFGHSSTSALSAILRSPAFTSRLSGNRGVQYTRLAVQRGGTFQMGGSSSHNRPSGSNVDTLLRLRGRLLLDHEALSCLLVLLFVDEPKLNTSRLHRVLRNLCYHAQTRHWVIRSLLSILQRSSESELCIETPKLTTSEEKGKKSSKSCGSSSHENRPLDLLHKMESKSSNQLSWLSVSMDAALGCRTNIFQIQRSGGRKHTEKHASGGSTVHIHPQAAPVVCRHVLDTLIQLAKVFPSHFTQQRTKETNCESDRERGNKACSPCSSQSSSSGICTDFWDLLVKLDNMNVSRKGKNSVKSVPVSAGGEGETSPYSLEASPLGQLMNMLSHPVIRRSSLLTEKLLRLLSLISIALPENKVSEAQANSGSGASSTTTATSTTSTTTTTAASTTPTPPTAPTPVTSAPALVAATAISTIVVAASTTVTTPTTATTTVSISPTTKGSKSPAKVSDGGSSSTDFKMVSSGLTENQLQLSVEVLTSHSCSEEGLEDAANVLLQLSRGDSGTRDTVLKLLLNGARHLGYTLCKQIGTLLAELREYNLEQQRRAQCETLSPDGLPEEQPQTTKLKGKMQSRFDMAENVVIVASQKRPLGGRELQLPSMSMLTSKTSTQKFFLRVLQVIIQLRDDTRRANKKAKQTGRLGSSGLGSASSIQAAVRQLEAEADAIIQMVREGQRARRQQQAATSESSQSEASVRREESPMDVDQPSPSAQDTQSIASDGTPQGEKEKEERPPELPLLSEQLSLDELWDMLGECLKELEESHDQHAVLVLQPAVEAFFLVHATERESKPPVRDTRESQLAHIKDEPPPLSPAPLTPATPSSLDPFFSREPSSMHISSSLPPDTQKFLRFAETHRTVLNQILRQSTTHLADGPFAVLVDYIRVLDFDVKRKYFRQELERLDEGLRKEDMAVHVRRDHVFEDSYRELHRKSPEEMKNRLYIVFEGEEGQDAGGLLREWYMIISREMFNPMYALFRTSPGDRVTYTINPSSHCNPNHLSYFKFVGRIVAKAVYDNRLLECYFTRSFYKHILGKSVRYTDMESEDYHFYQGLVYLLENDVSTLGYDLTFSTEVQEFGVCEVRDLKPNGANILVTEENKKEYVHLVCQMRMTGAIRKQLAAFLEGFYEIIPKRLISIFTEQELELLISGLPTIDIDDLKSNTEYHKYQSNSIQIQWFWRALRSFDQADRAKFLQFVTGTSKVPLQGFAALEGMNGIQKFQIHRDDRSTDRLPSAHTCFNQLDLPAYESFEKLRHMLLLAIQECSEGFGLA
UniProt P41134: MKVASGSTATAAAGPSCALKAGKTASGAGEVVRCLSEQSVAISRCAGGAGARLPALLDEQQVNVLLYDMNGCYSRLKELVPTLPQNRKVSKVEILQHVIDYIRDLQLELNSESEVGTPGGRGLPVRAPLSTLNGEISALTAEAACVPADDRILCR
UniProt Q9Y241: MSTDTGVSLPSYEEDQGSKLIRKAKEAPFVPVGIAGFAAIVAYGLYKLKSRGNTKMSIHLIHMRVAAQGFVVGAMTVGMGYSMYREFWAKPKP
UniProt Q00839, whole entry, looked up: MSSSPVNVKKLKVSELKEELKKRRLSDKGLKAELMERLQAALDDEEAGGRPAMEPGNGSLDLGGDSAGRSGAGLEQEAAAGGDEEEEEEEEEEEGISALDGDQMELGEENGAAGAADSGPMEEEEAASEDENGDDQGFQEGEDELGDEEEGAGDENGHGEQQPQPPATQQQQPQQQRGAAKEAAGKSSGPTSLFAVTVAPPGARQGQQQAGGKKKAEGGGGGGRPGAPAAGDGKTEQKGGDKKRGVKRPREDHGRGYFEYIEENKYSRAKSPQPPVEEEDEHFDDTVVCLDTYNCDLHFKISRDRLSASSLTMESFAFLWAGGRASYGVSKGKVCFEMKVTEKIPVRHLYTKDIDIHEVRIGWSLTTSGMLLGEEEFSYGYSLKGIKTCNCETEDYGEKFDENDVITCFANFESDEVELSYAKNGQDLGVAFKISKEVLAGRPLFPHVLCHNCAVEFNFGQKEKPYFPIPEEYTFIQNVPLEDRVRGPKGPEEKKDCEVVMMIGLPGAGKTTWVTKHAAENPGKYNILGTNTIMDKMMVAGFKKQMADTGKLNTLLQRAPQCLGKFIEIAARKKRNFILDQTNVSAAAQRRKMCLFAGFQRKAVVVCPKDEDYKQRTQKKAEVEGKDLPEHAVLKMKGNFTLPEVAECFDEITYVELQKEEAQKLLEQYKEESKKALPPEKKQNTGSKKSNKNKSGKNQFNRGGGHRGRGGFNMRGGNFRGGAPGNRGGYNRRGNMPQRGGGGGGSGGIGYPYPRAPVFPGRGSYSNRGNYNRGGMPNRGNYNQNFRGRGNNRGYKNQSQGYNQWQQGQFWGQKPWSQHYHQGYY

[1] = compound: C/C(=N\NC(=O)C1=CC(=CC=C1)S(=O)(=O)N2CCOCC2)/C3=C(C=CC(=C3)Cl)O
Outline: as §1

[2] = compound: C1=CC(=C(C=C1Cl)C2=NC3=NC=CN=C3C(=N2)NC4=CC=NC=C4)F
Outline: as §1

[3] = compound: C1=CC(=CC=C1C2=NC3=C(N2)C=C(C=C3)C(=O)N)OC4=CC=C(C=C4)Cl
Outline: as §1

[4] = compound: C1=CC2=C(C=CC(=C2)/C=C\3/C(=O)NC(=NCC4=CC=CS4)S3)N=C1
Outline: as §1

[5] = compound: C1=CC2=NC=CN=C2C=C1/C=C/3\C(=O)NC(=O)S3
Outline: as §1

[6] = compound: C1=CC=C(C=C1)C2=NC(=C(N2)C3=CC=NC=C3)C4=CC(=C(C=C4)Cl)O
Outline: as §1

[7] = compound: C1=CC=C2C(=C1)C3=NNC4=CC=CC(=C43)C2=O
Outline: as §1

[8] = compound: C1CCN(C1)C(=O)NC2=CC=CC(=C2)NC3=NC=C(C(=N3)NCCC4=CN=CN4)Br
Outline: as §1

[9] = compound: C1CN(CCC1(CC2=CC=C(C=C2)Cl)N)C3=NC=NC4=C3C=CN4
Outline: as §1

Measured: log2 fold change

HIF1AN (UniProt Q9NWT6)
inactive: erlotinib -0.022 | [1] -0.177 | [2] 0.092 | [3] 0.003 | [4] -0.117 | [5] -0.102 | [6] 0.12 | [7] 0.036 | [8] -0.043 | [9] 0.069

HSPA5 (UniProt P11021)
inactive: erlotinib -0.023 | [1] 0.005 | [2] -0.005 | [3] -0.019 | [4] -0.029 | [5] -0.004 | [6] -0.032 | [7] 0.021 | [8] 0.019 | [9] 0.017

HRAS (UniProt P01112)
inactive: erlotinib 0.029 | [1] 0.034 | [2] 0.069 | [3] 0.146 | [4] -0.356 | [5] -0.244 | [6] 0.138 | [7] -0.168 | [8] -0.08 | [9] 0.048

HPS1 (UniProt Q92902)
inactive: erlotinib -0.06 | [1] 0.006 | [3] -0.047 | [4] 0.226 | [5] 0.135 | [6] 0.026 | [7] 0.142 | [8] 0.1 | [9] -0.012

HSP90AB3P (UniProt Q58FF7)
inactive: erlotinib -0.139 | [1] -0.096 | [3] -0.096 | [4] 0.116 | [5] 0.037 | [6] -0.062 | [7] -0.213

HNRNPDL (UniProt O14979)
inactive: erlotinib -0.096 | [1] -0.131 | [2] -0.269 | [3] -0.015 | [4] -0.059 | [5] 0.043 | [6] -0.125 | [7] -0.037 | [8] 0.079 | [9] -0.057

HSPA6 (UniProt P17066)
inactive: erlotinib -0.022 | [1] -0.051 | [2] 0.031 | [3] 0.008 | [4] -0.005 | [5] 0.052 | [6] -0.008 | [7] -0.006 | [8] 0.019 | [9] -0.052

HINT1 (UniProt P49773)
inactive: erlotinib 0.049 | [1] 0.024 | [2] 0.186 | [3] -0.055 | [4] 0.02 | [5] 0.07 | [6] 0.083 | [7] 0.064 | [8] 0.008 | [9] -0.033

HUWE1 (UniProt Q7Z6Z7)
inactive: erlotinib -0.025 | [1] 0.057 | [2] 0.003 | [3] 0.024 | [4] 0.007 | [5] 0.006 | [6] 0.01 | [7] 0.013 | [8] -0.002 | [9] -0.009

HSF1 (UniProt Q00613)
inactive: erlotinib 0.073 | [1] 0.014 | [2] 0.053 | [3] -0.091 | [4] 0.162 | [5] 0.03 | [7] 0.057 | [8] -0.071 | [9] 0.045

HTD2 (UniProt P86397)
inactive: erlotinib 0.008 | [1] 0.002 | [2] -0.029 | [3] -0.034 | [4] 0.042 | [5] -0.028 | [7] 0.237

HMGCLL1 (UniProt Q8TB92)
inactive: erlotinib 0.029 | [1] -0.124 | [2] 0.135 | [3] 0.003 | [4] 0.016 | [5] 0.045 | [7] 0.034 | [8] 0.015 | [9] 0.089

HNRNPA1 (UniProt H0YH80)
inactive: [1] -0.126 | [2] -0.564 | [4] -0.333 | [5] 0.064 | [6] 0.141 | [7] 0.147 | [8] -0.058 | [9] -0.311

HIGD2A (UniProt Q9BW72)
inactive: erlotinib -0.28 | [2] -0.143 | [3] -0.081

HMBS (UniProt F5H226)
inactive: [5] 0.041 | [8] 0.032 | [9] 0.05

HMGXB4 (UniProt Q9UGU5)
inactive: [2] -0.32

HLA-E (UniProt P13747)
inactive: [1] 0.088 | [2] 0.112 | [4] -0.141 | [5] 0.075 | [7] -0.016 | [8] -0.179 | [9] 0.121

HSBP1 (UniProt O75506)
inactive: [5] 0.397

ID1 (UniProt P41134)
inactive: erlotinib -0.255 | [2] -0.043 | [3] 0.038 | [5] 0.071 | [6] 0.045 | [8] -0.089 | [9] 0.061

HSP90AA2P (UniProt Q14568)
inactive: [8] 0.044 | [9] -0.04

HUWE1, A0A087X1S3
inactive: erlotinib -0.08 | [2] 0.022 | [3] 0.33 | [5] 0.088 | [8] 0.059 | [9] -0.049

HOMER3 (UniProt Q9NSC5)
inactive: erlotinib 0.012 | [3] 0.044

HNRNPK isoform 3 (UniProt P61978)
inactive: erlotinib 0.101 | [2] -0.102 | [3] -0.032 | [5] 0.06 | [6] -0.024 | [8] -0.027 | [9] -0.052

ICOSLG isoform 2 (UniProt O75144)
inactive: erlotinib -0.256 | [3] -0.052 | [5] -0.044

HPF1 (UniProt Q9NWY4)
inactive: [2] 0.084

HIGD1A isoform 2 (UniProt Q9Y241)
inactive: [5] 0.142 | [6] -0.061

HNRNPU isoform 2 (UniProt Q00839)
inactive: [8] -0.114 | [9] -0.17

HTR1F (UniProt P30939)
inactive: erlotinib -0.015 | [1] -0.069 | [3] 0.012 | [4] 0.058 | [7] 0.021

HSPBP1 (UniProt Q9NZL4)
inactive: [2] 0.131

Quoted from the results shown (13 entries):
HNRNPDL (UniProt O14979)
inactive: erlotinib -0.096 | [1] -0.131 | [2] -0.269 | [3] -0.015 | [4] -0.059 | [5] 0.043 | [6] -0.125 | [7] -0.037 | [8] 0.079 | [9] -0.057

HSPA6 (UniProt P17066)
inactive: erlotinib -0.022 | [1] -0.051 | [2] 0.031 | [3] 0.008 | [4] -0.005 | [5] 0.052 | [6] -0.008 | [7] -0.006 | [8] 0.019 | [9] -0.052

HINT1 (UniProt P49773)
inactive: erlotinib 0.049 | [1] 0.024 | [2] 0.186 | [3] -0.055 | [4] 0.02 | [5] 0.07 | [6] 0.083 | [7] 0.064 | [8] 0.008 | [9] -0.033

HUWE1 (UniProt Q7Z6Z7)
inactive: erlotinib -0.025 | [1] 0.057 | [2] 0.003 | [3] 0.024 | [4] 0.007 | [5] 0.006 | [6] 0.01 | [7] 0.013 | [8] -0.002 | [9] -0.009

HSF1 (UniProt Q00613)
inactive: erlotinib 0.073 | [1] 0.014 | [2] 0.053 | [3] -0.091 | [4] 0.162 | [5] 0.03 | [7] 0.057 | [8] -0.071 | [9] 0.045

HTD2 (UniProt P86397)
inactive: erlotinib 0.008 | [1] 0.002 | [2] -0.029 | [3] -0.034 | [4] 0.042 | [5] -0.028 | [7] 0.237

HMGCLL1 (UniProt Q8TB92)
inactive: erlotinib 0.029 | [1] -0.124 | [2] 0.135 | [3] 0.003 | [4] 0.016 | [5] 0.045 | [7] 0.034 | [8] 0.015 | [9] 0.089

HNRNPA1 (UniProt H0YH80)
inactive: [1] -0.126 | [2] -0.564 | [4] -0.333 | [5] 0.064 | [6] 0.141 | [7] 0.147 | [8] -0.058 | [9] -0.311

HIGD2A (UniProt Q9BW72)
inactive: erlotinib -0.28 | [2] -0.143 | [3] -0.081

HMBS (UniProt F5H226)
inactive: [5] 0.041 | [8] 0.032 | [9] 0.05

HMGXB4 (UniProt Q9UGU5)
inactive: [2] -0.32

HLA-E (UniProt P13747)
inactive: [1] 0.088 | [2] 0.112 | [4] -0.141 | [5] 0.075 | [7] -0.016 | [8] -0.179 | [9] 0.121

HSBP1 (UniProt O75506)
inactive: [5] 0.397

Later entries.

HPS4 isoform 4 (UniProt Q9NQG7)
inactive: erlotinib 0.116 | [3] -0.014 | [6] -0.133 | [8] 0.081 | [9] -0.074

HUWE1 isoform 2 (UniProt Q7Z6Z7)
inactive: erlotinib -0.205 | [1] -0.062 | [3] -0.042 | [4] -0.217 | [7] 0.104

HNMT (UniProt P50135)
inactive: erlotinib 0.283 | [3] 0.031

HNRNPUL1 (UniProt M0R247)
inactive: erlotinib -0.032 | [1] -0.317 | [3] -0.513 | [4] 0.545 | [7] -0.419 | [8] 0.471 | [9] 0.051

HOOK1 (UniProt Q9UJC3)
inactive: [1] -0.145 | [2] 0.02 | [4] 0.093 | [7] -0.134

HSPBAP1 (UniProt Q96EW2)
inactive: erlotinib -0.016 | [1] -0.197 | [3] 0.06 | [4] 0.06 | [7] 0.092

HNRNPD (UniProt D6RF44)
inactive: erlotinib -0.16 | [3] -0.076

HOXD9 (UniProt P28356)
inactive: erlotinib -0.201 | [1] 0.019 | [3] -0.075 | [4] -0.036 | [7] -0.162

HOMER2 (UniProt Q9NSB8)
inactive: [1] 0.002 | [2] 0.012 | [4] 0.309 | [7] 0 | [8] -0.089 | [9] 0.13

HMG20B (UniProt Q9P0W2)
inactive: [5] -0.005

HNRNPR (UniProt O43390)
inactive: [2] -0.304 | [5] 0.127

ICE1 (UniProt Q9Y2F5)
inactive: [2] 0.135 | [5] 0.001

HOOK2 (UniProt Q96ED9)
inactive: [2] 0.134 | [8] -0.103 | [9] 0.155

HM13 (UniProt Q8TCT9)
inactive: [1] -0.016 | [2] 0.023 | [4] 0.053 | [5] 0.105 | [6] -0.041 | [7] -0.031 | [8] 0.146 | [9] 0.063

IBTK (UniProt Q9P2D0)
inactive: [1] 0.019 | [2] -0.08 | [4] -0.064 | [5] -0.091 | [6] -0.061 | [7] 0.006 | [8] -0.098 | [9] -0.108

HOXB4 (UniProt P17483)
inactive: [2] -0.018

Source: the supplement of paper PMC10849652
